From PMC11528023, “Transport mechanism and structural pharmacology of human urate transporter URAT1” (Cell Research, 2024)
These are yes or no findings as the source states them, for the method shown.

By UniProt entry, the sequences of proteins in these tests, tags left out. Where a name states a change or a piece, a line headed by the entry shows the natural chain unless it says otherwise.
UniProt Q96S37: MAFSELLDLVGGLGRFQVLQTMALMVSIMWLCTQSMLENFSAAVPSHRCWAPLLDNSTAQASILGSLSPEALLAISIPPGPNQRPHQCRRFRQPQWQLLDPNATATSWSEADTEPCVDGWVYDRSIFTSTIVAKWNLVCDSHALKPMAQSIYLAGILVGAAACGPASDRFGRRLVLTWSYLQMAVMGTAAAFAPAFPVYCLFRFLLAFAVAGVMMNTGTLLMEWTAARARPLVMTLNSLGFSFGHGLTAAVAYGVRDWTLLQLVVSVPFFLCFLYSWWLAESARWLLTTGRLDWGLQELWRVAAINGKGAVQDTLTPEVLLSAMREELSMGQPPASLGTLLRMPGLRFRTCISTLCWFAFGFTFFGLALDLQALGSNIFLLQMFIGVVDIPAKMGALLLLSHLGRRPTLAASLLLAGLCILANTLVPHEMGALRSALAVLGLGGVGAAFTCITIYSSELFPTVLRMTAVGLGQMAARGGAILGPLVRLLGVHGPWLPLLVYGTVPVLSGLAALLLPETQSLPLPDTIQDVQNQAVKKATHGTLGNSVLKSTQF
UniProt Q9NSA0: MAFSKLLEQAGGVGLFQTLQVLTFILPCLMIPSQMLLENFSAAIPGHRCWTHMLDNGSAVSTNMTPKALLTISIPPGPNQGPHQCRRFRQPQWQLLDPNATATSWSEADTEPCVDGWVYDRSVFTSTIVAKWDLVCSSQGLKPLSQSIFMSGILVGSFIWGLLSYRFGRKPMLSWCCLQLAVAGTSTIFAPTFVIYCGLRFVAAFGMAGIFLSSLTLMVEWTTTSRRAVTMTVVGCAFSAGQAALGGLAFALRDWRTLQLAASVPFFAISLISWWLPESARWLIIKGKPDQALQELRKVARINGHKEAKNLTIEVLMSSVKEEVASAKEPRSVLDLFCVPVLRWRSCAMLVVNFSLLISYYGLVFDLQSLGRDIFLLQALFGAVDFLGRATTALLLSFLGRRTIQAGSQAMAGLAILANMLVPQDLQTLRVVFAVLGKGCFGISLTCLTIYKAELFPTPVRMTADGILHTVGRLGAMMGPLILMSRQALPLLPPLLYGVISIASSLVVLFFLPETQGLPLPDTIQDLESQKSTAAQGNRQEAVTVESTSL

Biological target: URAT1EM: cryo-EM construct of human URAT1 (residues 3-553) with residues 280-343 and 60-65 replaced by the corresponding OAT4 sequences, fused to MBP and DARPin off7 (human) (UniProt Q96S37+Q9NSA0)
Test: cryo-EM particle images; purified protein at the high concentration used to prepare cryo-EM grids; particles seen on the grids (Supplementary Fig. S1b); both purified

binding: no binding
Substance: URAT1EM: cryo-EM construct of human URAT1 (residues 3-553) with residues 280-343 and 60-65 replaced by the corresponding OAT4 sequences, fused to MBP and DARPin off7 (from UniProt Q96S37 3-59; Q9NSA0 60-62; Q96S37 66-279; Q9NSA0 277-339; Q96S37 344-553)
